Tested on: ATM
Details: 20 µM

With `Cc1ccc(NC(=O)c2ccc(CN3CCN(C)CC3)cc2)cc1Nc1nccc(-c2cccnc2)n1` [compound 4, imatinib, reference compound] the “Activity on ATM” value was “no activity”.

Reference: paper PMC5931576, “Allosteric modulation of the farnesoid X receptor by a small molecule” (Scientific Reports, 2018)
